# These are yes or no findings as the source states them, for the method shown. Sequences can lack the tags named with a protein.
# B1: PNPase, bacterial two-hybrid fusion (enzyme, UniProt Q9HV59 1-701)
# chain: MNPVTKQFQFGQSTVTLETGRIARQATGAVLVTMDDVSVLVTVVGAKSPAEGRDFFPLSVHYQEKTYAAGRIPGGFFKREGRPSEKETLTSRLIDRPIRPLFPEGFMNEVQVVCTVVSTNKKSDPDIAAMIGTSAALAISGIPFAGPIGAARVGFHPEIGYILNPTYEQLQSSSLDMVVAGTEDAVLMVESEADELTEDQMLGAVLFAHDEFQAVIRAVKELAAEAGKPAWDWKAPAENTVLVNAIKAELGEAISQAYTITIKQDRYNRLGELRDQAVALFAGEEEGKFPASEVKDVFGLLEYRTVRENIVNGKPRIDGRDTRTVRPLRIEVGVLGKTHGSALFTRGETQALVVATLGTARDAQLLDTLEGERKDAFMLHYNFPPFSVGECGRMGSPGRREIGHGRLARRGVAAMLPTQDEFPYTIRVVSEITESNGSSSMASVCGASLALMDAGVPVKAPVAGIAMGLVKEGEKFAVLTDILGDEDHLGDMDFKVAGTDKGVTALQMDIKINGITEEIMEIALGQALEARLNILGQMNQVIAKPRAELSENAPTMLQMKIDSDKIRDVIGKGGATIRGICEETKASIDIEDDGSVKIYGETKEAAEAAKLRVLAITAEAEIGKIYVGKVERIVDFGAFVNILPGKDGLVHISQISDKRIDKVTDVLQEGQEVKVLVLDVDNRGRIKLSIKDVAAAEASGV
# Target: T25-RhlE2, bacterial two-hybrid fusion of RhlE2 (P. aeruginosa) (UniProt Q9I689)
# Assay: two-hybrid
binder,measurement,value
B1,binding,no binding

# From publication doi:10.1101/2021.01.29.428592
